{
  "source": "PubChem BioAssay AID540276",
  "about": "(National Center for Advancing Translational Sciences (NCATS), 2011)",
  "note": "About 5,400 (1.8%) of roughly 300,000 compounds were called active. Inconclusive results, whose numbers are uncertain, are shown with a selection of clear calls. Calls come from the whole dose curve; tested in HEK293 cells. Potencies of inconclusive entries are doubtful fits and often do not repeat. % is set by controls: 0 for no effect and ±100 for the full control effect; potency is the fitted concentration of half-maximal effect.",
  "data": [
    {"experiment": "qHTS for inhibitors of binding or entry into cells for Marburg Virus", "conditions": "Marburg virus pseudotyped entry inhibition, cell reporter; activity change, negative = inhibition: at 37.8 µM (top of the series) unless noted", "values": [
      {"compound": "COc1ccc(S(N)(=O)=O)cc1C(=O)OCCCOc1ccc(F)cc1", "Potency": "inconclusive: 7.94 µM [inhibitor, partial curve, poor fit]"},
      {"compound": "COc1ccc2nc(NCCCNC(=O)c3cc(OC)c(OC)c(OC)c3)c(C#N)cc2c1", "Potency": "inconclusive: 23.1 µM [inhibitor, partial curve, poor fit]"},
      {"compound": "O=C(NCC1COc2ccccc2O1)c1ccccc1", "note": "(stereo not drawn)", "activity change, negative = inhibition": "inactive: 15.3%"},
      {"compound": "Cc1ccc(Cn2ncc3c(N4CCN(c5ccccc5C)CC4)ncnc32)cc1", "Potency": "inconclusive: 35.5 µM [inhibitor, single point]"},
      {"compound": "COc1ccccc1C(=O)NCCN=C1NS(=O)(=O)c2ccccc21", "activity change, negative = inhibition": "inactive: 0.288% [at 46.1 µM]"},
      {"compound": "CCCCOC(=O)c1ccc(NC(=S)NC(=O)c2c(Cl)cnn2C)cc1", "activity change, negative = inhibition": "inactive: 1.94% [at 46.1 µM]"},
      {"compound": "O=C(Nc1ncc(Cc2ccccc2Cl)s1)c1ccc2c(c1)CC(c1ccccc1)OC2=O", "note": "(stereo not drawn)", "activity change, negative = inhibition": "inactive: 13.8% [at 46.1 µM]"},
      {"compound": "O=C(N/N=C/C(Br)=C/c1ccccc1)c1cnccn1", "Potency": "inconclusive: 35.5 µM [inhibitor, single point]"},
      {"compound": "O=C(Cc1cccc(C(F)(F)F)c1)NCC(c1ccco1)N1CCCCC1", "note": "(stereo not drawn)", "Potency": "inconclusive: 10 µM [inhibitor, partial curve, poor fit]"},
      {"compound": "CCCCN(CC)CCCNC(=O)c1nn(-c2ccc(OC)cc2)c(=O)c2c1c1ccccc1n2C", "activity change, negative = inhibition": "inactive: -6.38% [at 46.1 µM]"},
      {"compound": "CCC(=O)c1cn(CC(=O)NCC2CCCO2)c2ccccc12", "note": "(stereo not drawn)", "Potency": "inconclusive: 29.1 µM [activator, single point]"},
      {"compound": "COc1ccc(NC(=O)COc2nsnc2N2CCOCC2)cc1", "activity change, negative = inhibition": "inactive: 0.797%"},
      {"compound": "NC(=O)CSCc1nc2ccccc2s1", "activity change, negative = inhibition": "inactive: 11.7%"},
      {"compound": "CC1CCCC(NC(=O)COC(=O)c2ccccc2[N+](=O)[O-])C1C", "note": "(stereo not drawn)", "activity change, negative = inhibition": "inactive: 21.4% [at 46.1 µM]"},
      {"compound": "Cc1ccc(-c2nc3ccccc3o2)cc1NC(=O)c1ccc2c(c1)OCO2", "activity change, negative = inhibition": "inactive: 25.3%"},
      {"compound": "COc1ccc(CNC(=O)CCc2c(C)nc3c4cccnc4nn3c2C)cc1", "activity change, negative = inhibition": "inactive: 0.0045% [at 46.1 µM]"},
      {"compound": "CC(C)c1nnc(NC(=O)CS(=O)(=O)c2ccccc2)s1", "Potency": "inconclusive: 35.5 µM [activator, partial curve, poor fit]"},
      {"compound": "COc1cccc(C(=O)NNC(=S)NC2CCCCC2)c1", "activity change, negative = inhibition": "inactive: 6.98%"},
      {"compound": "CC(Nc1[nH]c(=O)n(C)c(=O)c1N=O)c1ccccc1", "note": "(stereo not drawn)", "Potency": "inconclusive: 35.5 µM [activator, partial curve, poor fit]"},
      {"compound": "Cc1ccc(N/C=C(\\C2OC(=O)c3ccccc32)[N+](=O)[O-])c(C)c1", "note": "(stereo not drawn)", "Potency": "inconclusive: 1.41 µM [inhibitor, partial curve, poor fit]"},
      {"compound": "O=C(CSc1nnc2ccc3ccccc3n12)N1CCOCC1", "Potency": "inconclusive: 20.6 µM [inhibitor, single point]"},
      {"compound": "COc1ccc(NC(=O)CN2C(=O)C(=O)c3ccccc32)c(OC)c1", "activity change, negative = inhibition": "inactive: 8.34% [at 46.1 µM]"},
      {"compound": "Cc1cc(C)cc(OCC(=O)N(Cc2ccco2)Cc2ccccc2Cl)c1", "Potency": "inconclusive: 8.91 µM [inhibitor, partial curve, poor fit]"},
      {"compound": "CCCN(CCC)S(=O)(=O)c1ccc(C(=O)N2CCCc3ccccc32)cc1", "Potency": "inconclusive: 18.3 µM [inhibitor, single point]"},
      {"compound": "COc1cccc(NC(=O)CSc2nnc(-c3ccoc3C)n2CC2CCCO2)c1", "note": "(stereo not drawn)", "Potency": "inconclusive: 6.51 µM [inhibitor, single point]"},
      {"compound": "COc1ccc(NS(=O)(=O)c2cccc(C(=O)NCC3(N4CCOCC4)CCCCC3)c2)cc1", "Potency": "inconclusive: 35.5 µM [inhibitor, single point]"},
      {"compound": "NC(=O)CSc1ccc(Br)cc1", "Potency": "inconclusive: 35.5 µM [activator, single point]"},
      {"compound": "CC(=Nc1ccccc1)Nc1ccccc1", "Potency": "inconclusive: 35.5 µM [inhibitor, single point]"},
      {"compound": "Cc1csc(NC(=O)Nc2ccccc2[N+](=O)[O-])n1", "Potency": "inconclusive: 11.2 µM [inhibitor, partial curve, poor fit]"},
      {"compound": "COc1ccc(CCNC(=O)C(=O)NCC2OCCN2S(=O)(=O)c2ccc3c(c2)OCCO3)cc1", "note": "(stereo not drawn)", "Potency": "inconclusive: 11.2 µM [inhibitor, single point]"},
      {"compound": "Cc1ccc(-c2nc(-c3cccs3)c(-c3cccs3)[nH]2)cc1", "activity change, negative = inhibition": "inactive: -29% [at 46.1 µM]"},
      {"compound": "COC(=O)c1c(C)oc(C)c1S(=O)(=O)NC(c1ccccc1)c1ccccc1", "activity change, negative = inhibition": "inactive: -25.9% [at 46.1 µM]"},
      {"compound": "Cc1ccc(C(=O)COC(=O)c2ccc3c(c2)C(=O)N(c2cccc4ncccc24)C3=O)cc1", "Potency": "inconclusive: 29.1 µM [inhibitor, single point]"},
      {"compound": "Cc1ccc(NC(=O)c2nc(S(C)(=O)=O)ncc2N(Cc2ccco2)Cc2ccco2)cc1", "Potency": "inconclusive: 0.501 µM [inhibitor, full curve, poor fit]"},
      {"compound": "C/C(=N\\Nc1cccc2cccnc12)c1ccc[nH]1", "Potency": "inconclusive: 1.26 µM [activator, single point]"},
      {"compound": "CSc1ccccc1NC(=O)c1ccc([N+](=O)[O-])cc1", "activity change, negative = inhibition": "inactive: 12.8%"},
      {"compound": "COc1ccc(OC)c(NC(=O)N2CCC3(CC2)Oc2ccccc2C(=O)N3Cc2ccccc2F)c1", "Potency": "inconclusive: 7.94 µM [inhibitor, partial curve, poor fit]"},
      {"compound": "CNC(=O)CN(C)S(=O)(=O)c1ccc(OC)c(Cl)c1", "Potency": "inconclusive: 2 µM [inhibitor, partial curve, poor fit]"},
      {"compound": "COc1ccc(-c2nc(-c3ccccc3)no2)c(OC)c1", "Potency": "inconclusive: 2.06 µM [inhibitor, full curve, poor fit]"},
      {"compound": "Cc1ccc(C(=O)N/C(=C\\C=C\\c2ccccc2)C(=O)NCc2ccco2)cc1", "Potency": "inconclusive: 8.91 µM [inhibitor, partial curve, poor fit]"},
      {"compound": "CSc1ncc(S(=O)(=O)c2ccccc2)c(=O)[nH]1", "Potency": "inconclusive: 4.47 µM [activator, partial curve, poor fit]"},
      {"compound": "Cc1cnc(C=NNC(N)=S)c2cccc(N)c12", "Potency": "active: 7.08 µM"},
      {"compound": "COc1ccc(Cn2cccc(NC(=O)Nc3cccc(C#N)c3)c2=O)cc1", "Potency": "inconclusive: 0.651 µM [activator, single point]"},
      {"compound": "NC(=O)C[C@@H]1NC(=O)c2cc([N+](=O)[O-])cc(F)c2NCCCC[C@@H](C(N)=O)NC(=O)[C@H](CO)NC1=O", "Potency": "inconclusive: 3.66 µM [activator, full curve, poor fit]"},
      {"compound": "COc1ccc(N(C)S(=O)(=O)c2cccc(C(=O)NC3CCC(C)CC3)c2)cc1", "note": "(stereo not drawn)", "Potency": "inconclusive: 5.01 µM [inhibitor, single point]"},
      {"compound": "O=C(COc1ccc(Br)cc1CO)Nc1ccccc1F", "Potency": "inconclusive: 7.08 µM [activator, single point]"},
      {"compound": "CCN1Cc2ccccc2-c2ccccc2S1(=O)=O", "activity change, negative = inhibition": "inactive: 1.14%"},
      {"compound": "Cc1cc(C(C)(C)C)oc1C(=O)N(CC(=O)NC1CCCC1)Cc1ccccc1Cl", "Potency": "inconclusive: 29.1 µM [inhibitor, single point]"},
      {"compound": "O=C(O)CCN1C(=O)C2C3C=CC(C3)C2C1=O", "note": "(stereo not drawn)", "activity change, negative = inhibition": "inconclusive: 37.4% [activator] [at 46.1 µM]"},
      {"compound": "c1ccc2c(c1)OCC(CNc1ncnc3sccc13)O2", "note": "(stereo not drawn)", "Potency": "inconclusive: 35.5 µM [inhibitor, partial curve, poor fit]"},
      {"compound": "COc1ccc(-c2cc(C(F)(F)F)nc(S(=O)(=O)CCCC(=O)Nc3cc(C)on3)n2)cc1OC", "Potency": "inconclusive: 8.91 µM [inhibitor, partial curve, poor fit]"},
      {"compound": "CC1(C)C(c2ccc(Cl)cc2)=[N+]([O-])C2(CCCC/C2=N\\O)N1O", "note": "(stereo not drawn)", "Potency": "inconclusive: 31.6 µM [activator, single point]"},
      {"compound": "FC(F)(F)c1n[nH]c(=S)n1/N=C/c1ccco1", "Potency": "inconclusive: 10 µM [activator, partial curve, poor fit]"},
      {"compound": "COC(=O)CSc1nc(N)c2c3c(sc2n1)CCCC3", "activity change, negative = inhibition": "inactive: -1.26%"},
      {"compound": "S=c1[nH]nc(-c2ccc3ccccc3n2)n1-c1cc(Cl)cc(Cl)c1", "activity change, negative = inhibition": "inactive: -17.4%"},
      {"compound": "CN1CCN(c2ccc(NC(=O)c3ccc4ccccc4c3)cc2)CC1", "Potency": "inconclusive: 7.94 µM [inhibitor, partial curve, poor fit]"},
      {"compound": "COc1ccc(Oc2nnc(C)c3ccccc23)cc1", "Potency": "inconclusive: 1.26 µM [activator, partial curve, poor fit]"},
      {"compound": "O=C(C1CCCN(S(=O)(=O)c2ccc(F)cc2)C1)N1CCCCCC1", "note": "(stereo not drawn)", "activity change, negative = inhibition": "inactive: -20.8%"},
      {"compound": "O=c1cc(N2CCCCC2)c(-c2ccccc2)nn1Cc1ccc(Cl)cc1", "Potency": "inconclusive: 35.5 µM [inhibitor, single point]"},
      {"compound": "COc1ccc(NC(=S)N2CCC(c3ccc(C)cc3)C2)cc1", "note": "(stereo not drawn)", "Potency": "inconclusive: 5.01 µM [activator, full curve, poor fit]"},
      {"compound": "Cc1ccc(-n2c(N)c(C(=O)N3CCOCC3)sc2=S)cc1", "activity change, negative = inhibition": "inactive: 3.52%"},
      {"compound": "COc1ccc(-c2c(C#N)c(SCC(=O)Nc3ccccc3)nc3c2CCCC3)cc1", "Potency": "inconclusive: 14.1 µM [inhibitor, single point]"},
      {"compound": "O=C(NCCCO)/C(=C/c1ccc(-c2cccc([N+](=O)[O-])c2)o1)NC(=O)c1ccccc1", "Potency": "inconclusive: 6.31 µM [activator, single point]"},
      {"compound": "O=C(CC1CCC1)NC(c1ccccc1)c1ccccc1", "Potency": "inconclusive: 35.5 µM [inhibitor, single point]"},
      {"compound": "CN(C)C(=O)COC(=O)c1ccccc1OCC(=O)Nc1ccc(SC(F)F)cc1", "Potency": "inconclusive: 35.5 µM [inhibitor, single point]"},
      {"compound": "O=C(Cn1cc(/C=C\\[N+](=O)[O-])c2ccccc21)Nc1ccccc1", "Potency": "inconclusive: 20 µM [inhibitor, partial curve, poor fit]"},
      {"compound": "CNC(=S)N1N=C(c2ccc(C)cc2)CC1c1ccc(OC)cc1", "note": "(stereo not drawn)", "activity change, negative = inhibition": "inactive: -20.2%"},
      {"compound": "CN(C)c1ccc(-c2nc3ccc(Cl)cn3c2Nc2ccc3c(c2)OCCO3)cc1", "Potency": "inconclusive: 11.2 µM [activator, partial curve]"}
    ]}
  ]
}
